These are yes or no findings as the source states them, for the method shown. Binding seen in cells or lysates may run through a third protein. These calls come from enrichment with a bait or labelling near it, and not all partners need be listed. A no says only that the protein was not detected with the bait. Where a sequence is shown, tags or fusion partners need not be part of it.
T1: 3xFLAG-Pof8 (S. pombe) (UniProt O13795)
T1 sequence: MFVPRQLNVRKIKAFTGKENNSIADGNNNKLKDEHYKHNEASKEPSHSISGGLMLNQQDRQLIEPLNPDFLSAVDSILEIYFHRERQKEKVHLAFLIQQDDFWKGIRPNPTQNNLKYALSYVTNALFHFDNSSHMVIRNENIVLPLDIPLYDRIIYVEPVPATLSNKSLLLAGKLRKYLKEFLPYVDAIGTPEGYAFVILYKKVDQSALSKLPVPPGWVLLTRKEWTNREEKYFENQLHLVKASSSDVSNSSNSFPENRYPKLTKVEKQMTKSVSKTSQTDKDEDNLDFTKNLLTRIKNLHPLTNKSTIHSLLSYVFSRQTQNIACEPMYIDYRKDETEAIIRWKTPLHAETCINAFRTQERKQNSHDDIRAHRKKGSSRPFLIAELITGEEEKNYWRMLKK

Amino acid sequences for entries named in this document (tags omitted). A change or cut given only in a name is not applied to a line headed by its entry.
UniProt Q9USL2: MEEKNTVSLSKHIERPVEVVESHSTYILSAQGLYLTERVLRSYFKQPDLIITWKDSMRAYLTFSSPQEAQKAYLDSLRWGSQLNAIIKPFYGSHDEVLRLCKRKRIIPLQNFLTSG
UniProt O59855: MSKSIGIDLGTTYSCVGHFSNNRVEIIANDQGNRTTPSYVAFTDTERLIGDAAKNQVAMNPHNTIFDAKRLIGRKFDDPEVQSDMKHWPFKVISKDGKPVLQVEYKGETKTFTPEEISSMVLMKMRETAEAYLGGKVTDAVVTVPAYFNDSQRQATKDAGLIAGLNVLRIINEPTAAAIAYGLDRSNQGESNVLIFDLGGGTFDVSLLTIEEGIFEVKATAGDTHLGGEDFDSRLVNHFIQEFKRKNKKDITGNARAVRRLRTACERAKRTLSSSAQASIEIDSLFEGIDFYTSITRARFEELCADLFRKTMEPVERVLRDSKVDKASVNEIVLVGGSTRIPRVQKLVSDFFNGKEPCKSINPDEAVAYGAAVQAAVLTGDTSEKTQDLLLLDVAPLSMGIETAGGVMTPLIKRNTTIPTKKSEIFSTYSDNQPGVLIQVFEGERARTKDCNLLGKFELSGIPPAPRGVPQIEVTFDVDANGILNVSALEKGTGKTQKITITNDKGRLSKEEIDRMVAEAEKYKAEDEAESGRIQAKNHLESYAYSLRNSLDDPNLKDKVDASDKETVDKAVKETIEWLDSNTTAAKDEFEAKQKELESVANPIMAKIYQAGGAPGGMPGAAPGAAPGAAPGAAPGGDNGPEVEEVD


Target: T1, 3xFLAG-Pof8 (S. pombe)
Experiment: affinity purification with mass spectrometry; 3xFLAG-Pof8 precipitated on anti-FLAG agarose from S. pombe cell-free extract (50 mM Tris-HCl pH 7.5, 150 mM NaCl, 0.1% NP40, 10% glycerol; 8 h at 4 °C; washes with 250 mM NaCl), eluted with 3x FLAG peptide, MudPIT; untagged strain as control

Row | Molecule | binding
1 | Thc1 (SPCC18b5.09c), endogenous (from UniProt Q9USL2) | binds
2 | heat-shock protein Ssa2 (from UniProt O59855 1-647) | no binding
3 | Lsm4, endogenous (protein, UniProt O14352 1-121) MLPLTLLNATQGRPILVELKNGETFNGHLENCDNYMNLTLREVIRTMPDGDKFFRLPECYIRGNNIKYLRIQDEVLSQVAKQQAQQRENRGSRFRGRGQRGRGNYGHTAPNRRGRGRGGHM | binds
